These are yes or no findings as the source states them, for the method shown. Binding seen in cells or lysates may run through a third protein. Some binding calls cover weakened binding; strength is not graded here.
Target: Toll-like receptor 4 (TLR4) (mouse (endogenous in mouse synovial tissue)) (UniProt Q9QUK6)
Test: co-IP; mouse synovial tissue lysed in NP-40 lysis buffer with protease inhibitor cocktail; immunoprecipitation with a TLR4 antibody at 4 °C, protein A+G agarose beads 4 h at 4 °C; isotype control antibody in parallel; Western blot

Amino acid sequences for entries named in this document (tags omitted). Residues count along the entry.
UniProt Q9QUK6, residues 26-835: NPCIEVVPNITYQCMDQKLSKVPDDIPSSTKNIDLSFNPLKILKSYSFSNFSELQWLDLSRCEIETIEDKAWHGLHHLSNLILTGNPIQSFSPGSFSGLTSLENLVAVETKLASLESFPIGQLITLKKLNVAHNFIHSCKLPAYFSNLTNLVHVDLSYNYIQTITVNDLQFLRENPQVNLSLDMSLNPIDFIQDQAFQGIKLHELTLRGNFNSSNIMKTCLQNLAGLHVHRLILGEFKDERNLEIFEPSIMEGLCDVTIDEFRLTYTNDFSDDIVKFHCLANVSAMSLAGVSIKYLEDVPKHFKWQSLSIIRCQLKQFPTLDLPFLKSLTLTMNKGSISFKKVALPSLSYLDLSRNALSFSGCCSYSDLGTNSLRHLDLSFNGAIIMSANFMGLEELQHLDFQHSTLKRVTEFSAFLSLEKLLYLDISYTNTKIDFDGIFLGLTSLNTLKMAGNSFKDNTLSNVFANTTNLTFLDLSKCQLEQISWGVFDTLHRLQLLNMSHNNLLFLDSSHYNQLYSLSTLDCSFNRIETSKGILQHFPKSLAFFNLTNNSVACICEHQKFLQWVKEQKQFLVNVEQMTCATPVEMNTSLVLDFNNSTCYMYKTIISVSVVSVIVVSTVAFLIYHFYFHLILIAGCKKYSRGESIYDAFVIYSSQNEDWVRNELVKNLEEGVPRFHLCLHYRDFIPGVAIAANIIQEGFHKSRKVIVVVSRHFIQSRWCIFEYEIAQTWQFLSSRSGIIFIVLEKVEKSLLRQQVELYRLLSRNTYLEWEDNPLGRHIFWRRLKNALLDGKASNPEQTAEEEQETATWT

B1: C-C motif chemokine receptor like 2 (CCRL2) (receptor, UniProt O35457 1-360)
chain: MDNYTVAPDDEYDVLILDDYLDNSGPDQVPAPEFLSPQQVLQFCCAVFAVGLLDNVLAVFILVKYKGLKNLGNIYFLNLALSNLCFLLPLPFWAHTAAHGESPGNGTCKVLVGLHSSGLYSEVFSNILLLVQGYRVFSQGRLASIFTTVSCGIVACILAWAMATALSLPESVFYEPRMERQKHKCAFGKPHFLPIEAPLWKYVLTSKMIILVLAFPLLVFIICCRQLRRRQSFRERQYDLHKPALVITGVFLLMWAPYNTVLFLSAFQEHLSLQDEKSSYHLDASVQVTQLVATTHCCVNPLLYLLLDRKAFMRYLRSLFPRCNDIPYQSSGGYQQAPPREGHGRPIELYSNLHQRQDII
In the case of B1, the binding is reported as “binds”.

From publication PMC12153209
